# The campaign covered roughly 350,000 compounds. About 6,000 (1.7%) were called active. This list was built around the results that the source calls inconclusive (neither active nor inactive); the mix of calls is not that of the screen. No stated cut-off is given here; in the data, active means CPE inhibition above about 20% (passing the limit was not always enough); inconclusive means no clear call, values can overlap the other calls; tested in BHK-21 cells.
# Experiment: protection of cells from dengue 2 killing – plate reader, single concentration, primary screen (AID 651640);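 further: 0% = median of neutral control wells and 100% = median of positive control wells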
# Conditions: DENV2-infected cells, cytopathic effect rescue, at 9.99 µM, active compounds read high
row,SMILES,CPE inhibition
1,Cc1nn2c(nc1=O)NNC2(C)C(C)(C)C (centres undefined),inactive: -11%
2,C[C@H]1CN([C@@H](C)CO)C(=O)c2cc(-c3cccnc3)cnc2O[C@H]1CN(C)C(=O)c1cccc(F)c1,inconclusive: 22%
3,COc1cccc(S(=O)(=O)Nc2ccc3c(c2)C(=O)N(C)C[C@H](OC)[C@H](C)CN[C@H](C)CO3)c1,inactive: 4.63%
4,CN1[C@@H]2Cn3c(ccc(-c4ccncc4)c3=O)[C@H]1[C@@H](C(=O)NCCc1ccccc1)[C@@H]2CO,inconclusive: 21%
5,CCOc1ccc(CCNC(=O)COC(=O)C2CC2)cc1OCC,inconclusive: 58.9%
6,COc1ccc2ccc(OCC(=O)Nc3cc(C)on3)cc2c1,inconclusive: 22.6%
7,Cc1cccnc1NC(=O)c1ccc(OCc2c(C)noc2C)cc1,inconclusive: 50.1%
8,CCOc1ccccc1OCCCC(=O)N1CCN(S(=O)(=O)c2cc(F)ccc2F)CC1,inconclusive: 23.2%
9,CNC[C@H]1OCCCC[C@@H](C)Oc2ccc(NS(=O)(=O)c3cn(C)cn3)cc2C(=O)N([C@@H](C)CO)C[C@H]1C,active: 64.3%
10,Cc1cc(C)cc(NC(=O)CN(C)CC(=O)N(CC(C)C)c2c(N)n(CC(C)C)c(=O)[nH]c2=O)c1,inconclusive: 30.2%
11,COc1ccc(Cc2nnc(NC(=O)c3ccccc3Cl)s2)cc1OC,active: 40.8%
12,CN(C)CCCn1c(N)c(S(=O)(=O)c2ccccc2)c2nc3ccccc3nc21,inactive: 5%
13,C=CCOc1ccccc1CN1CCC(Cc2ccccc2)CC1,active: 23.6%
14,CN1CSC2=C(C#N)C(c3cccc(OCc4ccccc4)c3)CC(=O)N2C1 (centres undefined),inactive: -0.127%
15,COc1ccc(NC(=O)N[C@@H]2C=C[C@H](CC(=O)NCc3ccccn3)O[C@H]2CO)cc1,inconclusive: 27.9%
16,CCOC(=O)C1CCCN(c2c(NCCCN3CCCC(C)C3)c(=O)c2=O)C1 (centres undefined),inconclusive: 22.4%
17,Cc1nc2ccccn2c(=O)c1NC(=O)c1cccs1,inconclusive: 47.1%
18,CCCn1cc(S(=O)(=O)c2ccc(C)cc2)c(=O)c2cc(OC)c(OC)cc21,inactive: 8.4%
19,CC(C)CC(=O)Nc1cccc(C(C)O)c1 (centres undefined),inactive: -3.58%
20,Cc1ccc(S(=O)(=O)Nc2cnc3ccccc3c2)cc1,inconclusive: 35.5%
21,CCOC(=O)C1=CCN(S(=O)(=O)c2ccc(F)cc2)C1c1ccc(Br)cc1 (centres undefined),inconclusive: 59.6%
22,CC(C)NC(=O)Nc1ccc2c(c1)CC(=O)N([C@H](C)CO)C[C@H](C)[C@H](CN(C)Cc1ccc(C(=O)O)cc1)O2,inconclusive: 31.5%
23,Cc1noc(C)c1S(=O)(=O)Nc1ccc2c(c1)CC(=O)N([C@@H](C)CO)C[C@H](C)[C@H](CN(C)CC1CCCCC1)O2,inconclusive: 24.8%
24,CCC(=O)Nc1ccc2c(c1)OC[C@@H](C)N(C(=O)C1CCC1)C[C@@H](C)[C@@H](OC)CN(C)C2=O,inconclusive: 28.3%
25,COc1ccc(C#Cc2ccc3c(c2)O[C@@H](CN(C)C)[C@H](C)CN([C@@H](C)CO)S3(=O)=O)cc1,inconclusive: 26%

row,SMILES,CPE inhibition
1,C[C@H](CO)N1C[C@H](C)[C@@H](CN(C)S(=O)(=O)c2ccc(Cl)cc2)Oc2c(NC(=O)c3ccncc3)cccc2C1=O,inconclusive: 39.7%
2,COC(=O)C1[C@H]2SC(C)(C)C(C(=O)OC)N2C(=O)N1Cc1nc2ccccc2s1 (some centres undefined),active: 38.1%
3,Cc1cc(C)c(C)c(S(=O)(=O)N2CCCCC2C(=O)O)c1C (centres undefined),inconclusive: 60%
4,CCN(c1ccccc1)S(=O)(=O)c1ccc(OC)c(NC(=O)CNCCc2ccccc2)c1,inactive: -2.04%
5,COc1ccc2c3c(n(C)c2c1)[C@H](CO)N(CC1CCOCC1)CC31CCN(CC2CCOCC2)CC1,inactive: 13.4%
6,C#CC(C)(C)NC(=O)c1ccc(-c2ccccc2F)cc1,inactive: -1.42%
7,COc1ccccc1C#Cc1ccc2c(c1)O[C@@H](CN(C)Cc1ccncc1)[C@@H](C)CN([C@@H](C)CO)S2(=O)=O,inconclusive: 20.2%
8,CO[C@H]1CN(C)C(=O)c2ccc(NC(=O)CC(F)(F)F)cc2OC[C@@H](C)N(C(=O)c2ccccc2F)C[C@H]1C,active: 62.3%
9,COc1ccc2c3c([nH]c2c1)[C@H](CO)N(C(=O)Nc1ccc(F)cc1)CC31CCN(C(=O)Nc2ccc3c(c2)OCO3)CC1,active: 61.4%
10,C[C@@H]1CN([C@H](C)CO)C(=O)c2cc(NS(=O)(=O)c3ccc(F)cc3)ccc2O[C@@H](C)CCCCO[C@@H]1CN(C)Cc1ccncc1,active: 33.5%
11,O=Cc1cc(N=Nc2cccc(C(=O)O)c2)ccc1O,inconclusive: 51.6%
12,O=c1c2ccccc2nc(SCc2ccncc2)n1CC1CCCO1 (centres undefined),inconclusive: 24.6%
13,C[C@@H]1CN([C@@H](C)CO)C(=O)c2c(c3ccccc3n2C)-c2ccccc2CO[C@@H]1CN(C)C(=O)Nc1ccc2c(c1)OCO2,inconclusive: 33.7%
14,CSc1ccc(S(=O)(=O)N2CCC(C(=O)NCc3ccccn3)CC2)cc1,inconclusive: 46.6%
15,CSCC[C@H](NC(=O)OC(C)(C)C)C(=O)N1CCC(C(=O)NCC(=O)Nc2ccc(C)cc2)CC1,inconclusive: 29.9%
16,CN(C)CCCNc1oc(-c2ccc(Cl)cc2)nc1S(=O)(=O)c1ccccc1,active: 38.5%
17,COc1ccc(NC(=O)N(C)C[C@H]2Oc3ccc(NC(=O)Cn4cnnn4)cc3C(=O)N([C@@H](C)CO)C[C@@H]2C)cc1,inactive: 4.61%
18,C[C@@H]1CN([C@H](C)CO)C(=O)Cc2cc(NS(=O)(=O)c3ccccc3)ccc2O[C@H]1CN(C)Cc1ccc(Cl)c(Cl)c1,active: 32.6%
19,CCOC(=O)Cc1csc(N/N=C/c2ccc(C(F)(F)F)cc2)n1,inactive: -6.87%
20,COc1cccc(C=C2SC(=S)NC2=O)c1,inconclusive: 40.5%
21,C[C@@H]1CN([C@H](C)CO)C(=O)c2cc(NC(=O)c3ccncc3)ccc2O[C@@H](C)CCCCO[C@H]1CN(C)Cc1ccccc1,inactive: 1.17%
22,CCCC(=O)Nc1ccc2c(c1)OC[C@@H](C)N(Cc1ccccn1)C[C@H](C)[C@@H](OC)CN(C)C2=O,active: 63.6%
23,Cc1ccc(Cl)cc1N1CCN(C(=O)C2CCN(c3nnc(-n4cccc4)s3)CC2)CC1,inconclusive: 22.7%
24,C[C@@H]1CN([C@@H](C)CO)S(=O)(=O)c2ccc(C3=CCCCC3)cc2O[C@@H]1CN(C)S(=O)(=O)c1ccc(F)cc1,inactive: -4.66%
25,O=S(=O)(Nc1cccc(-n2cnnn2)c1)c1cccc(Cl)c1,active: 59.3%

row,SMILES,CPE inhibition
1,CN(C)CCCNC(=O)C[C@@H]1CC[C@H](NS(=O)(=O)c2ccc(F)cc2)[C@H](CO)O1,inconclusive: 37.6%
2,COC(=O)C(C)Oc1ccc2cc(-c3ccccc3)c(=O)oc2c1 (centres undefined),inconclusive: 38.5%
3,C[C@@H]1CCCCO[C@H](CN(C)C(=O)c2ccncc2)[C@H](C)CN([C@@H](C)CO)C(=O)c2cc(NC(=O)CCC(F)(F)F)ccc2O1,inactive: -8.36%
4,CN(C)c1ccc2c(c1)[C@H]1C[C@H](CC(=O)NCc3cc(F)ccc3F)O[C@@H](CO)[C@H]1O2,inconclusive: 21.9%
5,CC(C)CC(=O)N1CC(C)N(C(=O)CC(C)C)CC1C (centres undefined),inconclusive: 26.7%
6,O=C(C[C@@H]1C[C@H]2c3cc(NC(=O)NC4CCCC4)ccc3O[C@H]2[C@H](CO)O1)NC1CCCCC1,inconclusive: 46.4%
7,O=S(=O)(Cc1ccccc1)Nn1cnnc1,inconclusive: 33.2%
8,COc1cccc(-c2ccc3n(c2=O)C[C@@H]2[C@@H](CO)[C@H](C(=O)NC4CCC4)N(S(C)(=O)=O)[C@H]32)c1,inactive: -3.97%
9,COc1cc(C2NC(=O)NC(C)=C2[N+](=O)[O-])cc(OC)c1OC (centres undefined),inconclusive: 29.1%
10,C[C@H](CO)N1C[C@H](C)[C@H](CN(C)Cc2cccc(C(=O)O)c2)Oc2cc(C3=CCCC3)ccc2S1(=O)=O,active: 44.1%
11,COc1ccc(OC)c(NC(=O)CC(NC(C)=O)c2ccccc2)c1 (centres undefined),inconclusive: 36.1%
12,COc1ccc2c3c(n(C)c2c1)[C@@H](CO)N(C(=O)C1CCCC1)CC31CN(C(=O)Nc2cccc(F)c2)C1,active: 77.3%
13,Cn1nnnc1NC(=O)c1ccccc1Cl,inconclusive: 34%
14,COc1ccc(NC(=O)Nc2ccc3c(c2)C(=O)N([C@H](C)CO)C[C@@H](C)[C@H](CN(C)C(=O)C2CCCCC2)OCCCC[C@H](C)O3)cc1,active: 20.7%
15,COc1cc(NC(=O)COc2cccc3c2OC(C)(C)C3)cc(OC)c1OC,inconclusive: 23.9%
16,CC(C)(C)[C@@H]1C=C(C(=O)N2CCCCCCC2)O[C@H](OCc2ccc(CO)cc2)C1,inconclusive: 22%
17,COc1ccc(O)c(/C=C2/SC(=S)N(Cc3ccccc3)C2=O)c1,inconclusive: 25.9%
18,CO[C@H](CN(C)S(=O)(=O)c1ccc(F)cc1)[C@@H](C)CN(C(=O)Nc1ccccc1F)[C@H](C)CO,inconclusive: 41.7%
19,CC12CCC(C(=O)N(c3ccccc3Cl)C1=O)C2(C)C (centres undefined),inconclusive: 20.8%
20,COc1ccc(/C=C2\SC(=O)N(CCCC(=O)Nc3ccc(C(=O)O)cc3)C2=O)cc1OC,inconclusive: 37.1%
21,COCCNc1ncnc2c1ncn2[C@H]1CN(Cc2ccccc2)C[C@@H](CO)O1,inconclusive: 148%
22,CN1C(=O)[C@@]2(C3=C(CCCC3=O)OC3=C2C(=O)CC(C)(C)C3)c2ccccc21,inconclusive: 43%
23,Cn1c2ccccc2c(=O)c2cc(C#Cc3ccsc3)ccc21,active: 66%
24,CCCCNC(=O)Nc1ccc(C2SCCS2)cc1,inconclusive: 22.1%

# Retrieved by compound from above:
row,SMILES,CPE inhibition
17,Cc1nc2ccccn2c(=O)c1NC(=O)c1cccs1,inconclusive: 47.1%
18,CO[C@H](CN(C)S(=O)(=O)c1ccc(F)cc1)[C@@H](C)CN(C(=O)Nc1ccccc1F)[C@H](C)CO,inconclusive: 41.7%
1,C[C@H](CO)N1C[C@H](C)[C@@H](CN(C)S(=O)(=O)c2ccc(Cl)cc2)Oc2c(NC(=O)c3ccncc3)cccc2C1=O,inconclusive: 39.7%
12,CN(C)CCCn1c(N)c(S(=O)(=O)c2ccccc2)c2nc3ccccc3nc21,inactive: 5%
11,COc1ccc(Cc2nnc(NC(=O)c3ccccc3Cl)s2)cc1OC,active: 40.8%

# Reference: PubChem BioAssay AID651640 (Broad Institute, 2012)
